Measurements reported in PubChem BioAssay AID1224830 (NIAID, 2016)

- Assay: 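Regulators of TLR4 signalling towards TNF-alpha in macrophage-like cells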 (primary screen)
- Cells: human THP-1 monocytic leukaemia cells, TNF dual-luciferase reporter clone, PMA-differentiated to macrophage-like cells
- Reagent: siRNA pool against human genes, 50 nM
- Timing: LPS for 4 h, given about 3 days after siRNA transfection
- Challenge: bacterial LPS (TLR4 ligand), 10 ng/ml
- Measured: 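TNF firefly reporter luminescence divided by renilla, normalised to the plate median, then turned into a robust z-score for each replicate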
- Reading the numbers: TNF reporter robust z-score: higher = stronger TNF reporter response to LPS
- Call rule: 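Each well counts as active if its z-score is over 2.8 or under -1.5; controls are left without a call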
Shown is a random part of about 18,000 deposited reagents. About 2,900 of them (16%) were called active. 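Calls are made per well; low scores hint the gene aids the LPS response, high scores that it dampens it.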 Repeated entries: four replicate wells of each siRNA pool. Reagent sequences are not shown.

no.	target	TNF reporter robust z-score	outcome
1	PAK2	-0.13	inactive
2	PAK2	0.02	inactive
3	PAK2	0.19	inactive
4	PAK2	0.42	inactive
5	ZNF529	-0.5	inactive
6	ZNF529	-0.25	inactive
7	ZNF529	-0.62	inactive
8	ZNF529	0.97	inactive
9	DSG3	-0.5	inactive
10	DSG3	-0.51	inactive
11	DSG3	-0.62	inactive
12	DSG3	-0.18	inactive
13	PDILT	-0.3	inactive
14	PDILT	0.6	inactive
15	PDILT	0.26	inactive
16	PDILT	0.15	inactive
17	LIPC	0.43	inactive
18	LIPC	-0.18	inactive
19	LIPC	-0.08	inactive
20	LIPC	1.08	inactive
21	OR6K2	0.14	inactive
22	OR6K2	0.34	inactive
23	OR6K2	-0.05	inactive
24	OR6K2	0.97	inactive
25	RPS20	-0.4	inactive
26	RPS20	-0.03	inactive
27	RPS20	-0.14	inactive
28	RPS20	0.29	inactive
29	FAM153CP	-0.57	inactive
30	FAM153CP	-0.06	inactive
31	FAM153CP	-0.87	inactive
32	FAM153CP	-0.68	inactive
33	GMEB1	1.94	inactive
34	GMEB1	2.97	active
35	GMEB1	1.03	inactive
36	GMEB1	1.43	inactive
37	SBK1	0.38	inactive
38	SBK1	-0.77	inactive
39	SBK1	-1.44	inactive
40	SBK1	0.07	inactive
41	FAT4	-0.4	inactive
42	FAT4	0.37	inactive
43	FAT4	0.85	inactive
44	FAT4	-1.06	inactive
45	SLC14A1	-0.06	inactive
46	SLC14A1	0.78	inactive
47	SLC14A1	0.41	inactive
48	SLC14A1	1.09	inactive
49	CSRNP1	-0.1	inactive
50	CSRNP1	-0.76	inactive
51	CSRNP1	-0.54	inactive
52	CSRNP1	0.35	inactive
53	MELK	-0.11	inactive
54	MELK	0.14	inactive
55	MELK	0.96	inactive
56	MELK	1.56	inactive

Copied from above for reference:
no.	target	TNF reporter robust z-score	outcome
27	RPS20	-0.14	inactive
28	RPS20	0.29	inactive
29	FAM153CP	-0.57	inactive
30	FAM153CP	-0.06	inactive
31	FAM153CP	-0.87	inactive
32	FAM153CP	-0.68	inactive
33	GMEB1	1.94	inactive
34	GMEB1	2.97	active
35	GMEB1	1.03	inactive
36	GMEB1	1.43	inactive
37	SBK1	0.38	inactive
38	SBK1	-0.77	inactive
39	SBK1	-1.44	inactive
40	SBK1	0.07	inactive
41	FAT4	-0.4	inactive
42	FAT4	0.37	inactive

Next reagents:
no.	target	TNF reporter robust z-score	outcome
57	SH3BP1	-0.24	inactive
58	SH3BP1	2.5	inactive
59	SH3BP1	0.43	inactive
60	SH3BP1	-0.01	inactive
61	STX19	-1.24	inactive
62	STX19	-0.38	inactive
63	STX19	-0.83	inactive
64	STX19	-0.22	inactive
65	SPACA5B	-0.57	inactive
66	SPACA5B	0.39	inactive
67	SPACA5B	-0.65	inactive
68	SPACA5B	0.19	inactive
69	MOB1A	0.4	inactive
70	MOB1A	0.05	inactive
71	MOB1A	0.47	inactive
72	MOB1A	1.27	inactive
73	MUCL1	-0.59	inactive
74	MUCL1	-0.09	inactive
75	MUCL1	-0.52	inactive
76	MUCL1	-0.29	inactive
77	SEMA4G	0.6	inactive
78	SEMA4G	-0.02	inactive
79	SEMA4G	0.22	inactive
80	SEMA4G	0.64	inactive
81	OPRK1	0.89	inactive
82	OPRK1	-0.87	inactive
83	OPRK1	0.79	inactive
84	OPRK1	0.56	inactive
85	SEMA6B	4.77	active
86	SEMA6B	1.46	inactive
87	SEMA6B	-0.21	inactive
88	SEMA6B	1.01	inactive
89	COX16	0.37	inactive
90	COX16	0.28	inactive
91	COX16	0.09	inactive
92	COX16	0.19	inactive
93	ANKRD13B	0.56	inactive
94	ANKRD13B	0.08	inactive
95	ANKRD13B	0.74	inactive
96	ANKRD13B	1.08	inactive
97	RFX3	-0.12	inactive
98	RFX3	3.43	active
99	RFX3	0.26	inactive
100	RFX3	0.85	inactive
101	FATE1	-0.18	inactive
102	FATE1	1.16	inactive
103	FATE1	0.3	inactive
104	FATE1	0.54	inactive
105	SERGEF	0.8	inactive
106	SERGEF	1.09	inactive
107	SERGEF	2.17	inactive
108	SERGEF	1.79	inactive
109	RAG2	0.65	inactive
110	RAG2	1	inactive
111	RAG2	-1.31	inactive
112	RAG2	1.66	inactive
